Assay results taken from PubChem BioAssay (NCI).
What follows is the remainder of the data, with few or none of the hits. Active and inactive are the calls of the source. No stated cut-off is given here; in the data, active means growth inhibition above about 70%; inactive means the rest.

Experiment: NCI Yeast Anticancer Drug Screen. Data for the wt2 strain (AID 169);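 further: 0% = growth of vehicle-treated yeast cultures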
Details: S. cerevisiae wt2 strain growth inhibition, hits give high values
Method: Growth inhibition of yeast strains with defined genetic alterations is measured as a screen for potential anti-cancer activity. Selected strains with alterations in DNA damage repair or cell cycle control were exposed to compounds and growth inhibition was measured relative to vehicle treated controls. The strain used in this assay is wt2

Measured: growth inhibition

O=C(O)C(O)C(O)C1[O][Sb][O]C1CO (stereo not given)
inactive: at 1.2 µM 2% | at 3.7 µM 2% | at 11.0 µM 3% | at 33.0 µM 3% | at 100.0 µM 4%

Cc1cc[c]([Sb]2[O]C(CO)C(C(O)C(O)C(=O)O)[O]2)cc1 (stereo not given)
inactive: at 1.2 µM 0% | at 3.7 µM 2% | at 11.0 µM 2% | at 33.0 µM 3% | at 100.0 µM 5%

CCCCN(CCCC)CC(=O)c1ccc(I)cc1
inactive: at 1.2 µM 0% | at 3.7 µM 2% | at 11.0 µM 7% | at 33.0 µM 9% | at 100.0 µM 23%

O=P1(NNc2ncccn2)SC(NN=C2CCCCC2)=NC12CCCCC2 (stereo not given)
inactive: at 1.2 µM -2% | at 3.7 µM -3% | at 11.0 µM -2% | at 33.0 µM -4% | at 100.0 µM 3%

CCOC(=O)CNP(=S)(OCC)OCC
inactive: at 1.2 µM -2% | at 3.7 µM -1% | at 11.0 µM 0% | at 33.0 µM -1% | at 100.0 µM 1%

O=C(CCN1CC1)Nc1ccccc1
inactive: at 1.2 µM 2% | at 3.7 µM 3% | at 11.0 µM 3% | at 33.0 µM 1% | at 100.0 µM 48%

O=C(NCP(=O)(Oc1ccccc1)Oc1ccccc1)OCc1ccccc1
inactive: at 1.2 µM -2% | at 3.7 µM -2% | at 11.0 µM -1% | at 33.0 µM -2% | at 100.0 µM -16%

COc1cc2c3cc1Oc1c(O)c(OC)cc4c1[C@H](Cc1ccc(cc1)Oc1cc(ccc1O)C[C@H]3N(C)CC2)N(C)CC4
inactive: at 1.2 µM -2% | at 3.7 µM -5% | at 11.0 µM -4% | at 33.0 µM -5% | at 100.0 µM -6%
